Taken from: PubChem BioAssay AID1508597 (Cure First, 2020)

Assay: 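Knock-downs altering ovarian cancer cell survival with or without PARP inhibitor rucaparib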 (primary screen)
Cell system: human ovarian carcinoma lines grown from tumours: OCI-P5x (papillary serous) and OCI-C5x (clear cell)
Reagent: siRNA pool against human genes, 1.25 pmol siRNA per well
Time to read-out: 72 h or 96 h, depending on the cell culture
Conditions: rucaparib 20 µM (about IC30) or vehicle, present until read-out
Rucaparib or vehicle: Vehicle
Cell line: OCI-P5x (serous)
Detection: 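ATP luminescence measured at 72 or 96 h according to the culture, then normalised and expressed as percent viability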
Reading the numbers: viability, normalised: higher = more viable cells remaining
Rule for the call: 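Active when normalised viability falls below 80 percent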
Meaning of the calls: active = viability under 80%; inactive = viability 80% or more
This is an unselected part of the about 2,100 reagents, in one setting of the screen. 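Calls flag viability under 80% in either arm, not effects specific to rucaparib; the reference for percent is not stated.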 A reagent listed more than once was tested more than once; the source does not tell the runs apart. The record does not give: the 100% reference.

target	technical replicate	viability, normalised (%)	Outcome
NR4A2	1	52.2	active
NR4A2	2	49.1	active
NR4A2	3	65.8	active
PAF1	1	62.3	active
PAF1	2	39.3	active
PAF1	3	64.3	active
MAP3K12	1	95.8	inactive
MAP3K12	2	83.5	inactive
MAP3K12	3	88.9	inactive
MAT2A	1	57	active
MAT2A	2	61	active
MAT2A	3	68.9	active
DPF2	1	65	active
DPF2	2	66.3	active
DPF2	3	61.9	active
DDX51	1	35.6	active
DDX51	2	48	active
DDX51	3	50.7	active
PCGF2	1	39.8	active
PCGF2	2	47.6	active
PCGF2	3	69.6	active

Single entries from the list:
DPF2, technical replicate 3, Outcome → active
For “viability, normalised (%)”, PAF1, technical replicate 2 has 39.3

The listing continues.
target	technical replicate	viability, normalised (%)	Outcome
DDX43	1	85.9	inactive
DDX43	2	78	active
DDX43	3	83.6	inactive
PAN3	1	86.4	inactive
PAN3	2	77.1	active
PAN3	3	88.2	inactive
BORA	1	56.2	active
BORA	2	50.3	active
BORA	3	54.2	active
CAV2	1	68.2	active
CAV2	2	68.9	active
CAV2	3	97.8	inactive
CTSD	1	87.4	inactive
CTSD	2	69.1	active
CTSD	3	79.9	active
ELAC2	1	52.9	active
ELAC2	2	64.1	active
ELAC2	3	35.7	active
RBBP4	1	60.7	active
RBBP4	2	76.8	active
RBBP4	3	73.3	active
SATB2	1	58.5	active
SATB2	2	70.4	active
SATB2	3	67.1	active
GRK3	1	104	inactive
GRK3	1	90.9	inactive
GRK3	2	77.8	active
GRK3	2	92.3	inactive
GRK3	3	81.3	inactive
GRK3	3	95.1	inactive
MLH1	1	69.2	active
MLH1	2	57.2	active
MLH1	3	70	active
TSTD1	1	55.1	active
TSTD1	2	61.5	active
TSTD1	3	46.6	active
